Test results from PMC11569202.
Results are given in words; binding and its absence hold for the method and conditions named. Binding seen in cells or lysates may run through a third protein. Some binding calls cover weakened binding; strength is not graded here. Tags and fused reporters may be left off the sequences shown.

The chains behind the UniProt entries cited, without tags or fusion partners.
UniProt P35579: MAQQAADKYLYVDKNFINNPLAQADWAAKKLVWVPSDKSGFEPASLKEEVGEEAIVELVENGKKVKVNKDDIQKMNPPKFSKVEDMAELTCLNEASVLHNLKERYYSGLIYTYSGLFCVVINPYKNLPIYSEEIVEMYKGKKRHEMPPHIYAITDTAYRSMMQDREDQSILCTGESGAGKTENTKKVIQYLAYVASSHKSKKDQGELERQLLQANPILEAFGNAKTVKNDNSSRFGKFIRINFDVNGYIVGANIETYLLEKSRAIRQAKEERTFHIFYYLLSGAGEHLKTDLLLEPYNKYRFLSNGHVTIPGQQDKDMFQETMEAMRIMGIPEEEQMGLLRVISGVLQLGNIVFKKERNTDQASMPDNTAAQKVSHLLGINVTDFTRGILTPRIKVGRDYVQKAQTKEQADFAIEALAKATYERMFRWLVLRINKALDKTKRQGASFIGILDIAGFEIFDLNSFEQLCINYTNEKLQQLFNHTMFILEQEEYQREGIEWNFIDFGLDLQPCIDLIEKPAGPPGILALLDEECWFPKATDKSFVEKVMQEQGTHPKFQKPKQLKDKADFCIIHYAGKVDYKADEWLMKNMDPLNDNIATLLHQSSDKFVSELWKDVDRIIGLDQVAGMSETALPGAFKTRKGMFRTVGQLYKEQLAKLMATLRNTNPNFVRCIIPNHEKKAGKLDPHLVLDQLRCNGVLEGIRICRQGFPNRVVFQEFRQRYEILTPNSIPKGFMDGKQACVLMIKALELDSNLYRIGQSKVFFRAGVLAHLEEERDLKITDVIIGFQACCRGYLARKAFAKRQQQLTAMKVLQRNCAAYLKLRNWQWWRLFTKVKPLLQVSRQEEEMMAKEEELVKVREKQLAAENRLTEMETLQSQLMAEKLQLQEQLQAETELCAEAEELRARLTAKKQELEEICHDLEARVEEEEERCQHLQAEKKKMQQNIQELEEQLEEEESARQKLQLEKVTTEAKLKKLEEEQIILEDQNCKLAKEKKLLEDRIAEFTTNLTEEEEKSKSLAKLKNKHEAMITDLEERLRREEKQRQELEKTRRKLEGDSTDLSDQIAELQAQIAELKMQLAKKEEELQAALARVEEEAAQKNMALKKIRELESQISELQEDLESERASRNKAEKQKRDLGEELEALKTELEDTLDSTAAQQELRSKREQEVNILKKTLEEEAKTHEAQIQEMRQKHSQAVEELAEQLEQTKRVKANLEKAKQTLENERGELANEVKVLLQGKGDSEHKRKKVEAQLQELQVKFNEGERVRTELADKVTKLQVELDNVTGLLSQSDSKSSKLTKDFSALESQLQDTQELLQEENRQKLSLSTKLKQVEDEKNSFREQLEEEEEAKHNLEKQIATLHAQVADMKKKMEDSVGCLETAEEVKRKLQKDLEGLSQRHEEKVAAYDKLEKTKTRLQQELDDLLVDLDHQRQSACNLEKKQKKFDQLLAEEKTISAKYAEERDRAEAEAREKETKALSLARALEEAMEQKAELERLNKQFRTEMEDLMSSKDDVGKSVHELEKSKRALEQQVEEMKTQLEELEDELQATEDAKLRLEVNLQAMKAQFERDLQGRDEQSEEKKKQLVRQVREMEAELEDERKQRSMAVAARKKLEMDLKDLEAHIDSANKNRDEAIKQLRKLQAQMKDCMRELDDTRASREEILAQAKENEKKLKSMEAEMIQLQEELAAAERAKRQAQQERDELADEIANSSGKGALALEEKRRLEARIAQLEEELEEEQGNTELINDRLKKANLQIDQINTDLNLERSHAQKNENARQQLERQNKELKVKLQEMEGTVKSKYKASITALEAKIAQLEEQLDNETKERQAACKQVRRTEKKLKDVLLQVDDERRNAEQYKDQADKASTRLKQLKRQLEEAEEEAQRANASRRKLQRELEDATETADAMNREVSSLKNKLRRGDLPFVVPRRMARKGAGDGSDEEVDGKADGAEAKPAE

Biological target: T1, Flag-FATS (fragile site-associated tumor suppressor) (UniProt Q96M02)
T1 sequence: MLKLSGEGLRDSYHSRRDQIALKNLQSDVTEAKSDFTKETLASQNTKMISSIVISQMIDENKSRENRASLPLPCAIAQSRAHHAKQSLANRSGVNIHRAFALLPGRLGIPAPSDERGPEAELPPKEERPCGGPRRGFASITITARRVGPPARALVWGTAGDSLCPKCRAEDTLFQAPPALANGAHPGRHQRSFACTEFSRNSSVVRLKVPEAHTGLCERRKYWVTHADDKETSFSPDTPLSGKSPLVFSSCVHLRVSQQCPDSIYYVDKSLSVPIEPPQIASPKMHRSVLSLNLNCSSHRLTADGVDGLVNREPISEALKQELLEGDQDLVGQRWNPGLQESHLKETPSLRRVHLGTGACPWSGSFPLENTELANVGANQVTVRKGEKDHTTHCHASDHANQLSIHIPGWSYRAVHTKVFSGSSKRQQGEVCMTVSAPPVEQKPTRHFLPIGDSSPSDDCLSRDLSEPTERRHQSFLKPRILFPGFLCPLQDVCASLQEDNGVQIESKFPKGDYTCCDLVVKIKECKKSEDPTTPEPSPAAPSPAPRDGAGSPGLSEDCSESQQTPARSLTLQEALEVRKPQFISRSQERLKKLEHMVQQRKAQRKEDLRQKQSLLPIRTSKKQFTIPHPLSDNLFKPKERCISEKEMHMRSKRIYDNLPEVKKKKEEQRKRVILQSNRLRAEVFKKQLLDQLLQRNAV
Assay: co-IP; MCF-7 and MDA-MB-231 cells transfected with Flag-FATS or empty plasmid; RIPA lysates (1 mg total protein) incubated overnight at 4 °C with beads conjugated to Flag, FATS or control IgG antibodies; western blot for MYH9

binding: binds
Substance: myosin heavy chain 9 (MYH9) (from UniProt P35579 1-1960)
